Values from PubChem BioAssay AID1159578 (Peter MacCallum Cancer Centre, 2015).
In all, the deposit lists about 18,000 reagents; below is a part drawn at random. About 1,030 of all reagents (5.7%) were called active. 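Inactive calls also include pools with fewer than 3300 nuclei, whose migration was not assessed.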 Raw values vary from plate to plate and are shown uncorrected. A number with no mark means an inactive call. Further read-outs or replicates are left out here.

- Assay: 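Genome-wide hunt for genes controlling movement of lymphatic endothelial cells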 (primary screen)
- System: human lymphatic endothelial cells
- Reagents: siRNA pool against human genes, 40 nM
- Duration: 48 h after transfection
- Read-out: 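High-content imaging of dye-stained cells in a scratch assay measures filled wound area and nuclei per well; duplicate means given as ratio to mock and robust z-score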
- Reading the numbers: migration robust z-score: higher = faster migration into the scratch; nuclei per well: higher = more cells in the well
- Hit rule: 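Migration changed when robust z exceeds 2 or falls below -2 and mean nuclei number is at least 3300; otherwise not called changed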
- Meaning of the calls: active = migration changed; inactive = no migration change, or too few cells

| Target gene | migration robust z-score | migration class with cell-count check | nuclei per well, duplicate mean |
| --- | --- | --- | --- |
| MCM3 (GeneID 4172) | -1.38 | migration z between -2 and 2; enough cells | 7196 |
| SH3BP1 (GeneID 23616) | -0.29 | migration z between -2 and 2; enough cells | 5527 |
| BARHL1 (GeneID 56751) | -0.02 | migration z between -2 and 2; enough cells | 5714 |
| SLC9A7 (GeneID 84679) | 0.96 | migration z between -2 and 2; enough cells | 6376 |
| PRPF38B (GeneID 55119) | -0.37 | migration z between -2 and 2; enough cells | 5662 |
| RABGAP1 (GeneID 23637) | 0.42 | migration z between -2 and 2; enough cells | 5000 |
| CPA6 (GeneID 57094) | 0.76 | migration z between -2 and 2; enough cells | 5603 |
| RPUSD4 (GeneID 84881) | -0.88 | migration z between -2 and 2; enough cells | 4994 |
| PRM3 (GeneID 58531) | 0 | migration z between -2 and 2; enough cells | 6262 |
| PDE6G (GeneID 5148) | 0.42 | migration z between -2 and 2; enough cells | 4374 |
| TARS2 (GeneID 80222) | -0.38 | migration z between -2 and 2; enough cells | 5536 |
| LMO4 (GeneID 8543) | 1.17 | migration z between -2 and 2; enough cells | 5170 |
| MEGF9 (GeneID 1955) | 0.74 | migration z between -2 and 2; enough cells | 6349 |
| S100P (GeneID 6286) | 0.17 | migration z between -2 and 2; enough cells | 3367 |
| TFCP2L1 (GeneID 29842) | 0.39 | migration z between -2 and 2; enough cells | 5150 |
| UNC13A (GeneID 23025) | 0.26 | migration z between -2 and 2; enough cells | 4846 |
| RAB30 (GeneID 27314) | 0.78 | migration z between -2 and 2; enough cells | 6206 |
| IL38 (GeneID 84639) | 1.46 | migration z between -2 and 2; enough cells | 4942 |
| BNIP2 (GeneID 663) | 0.08 | migration z between -2 and 2; enough cells | 5454 |
| SPARCL1 (GeneID 8404) | 1.4 | migration z between -2 and 2; enough cells | 6013 |
| TRNP1 (GeneID 388610) | 0.58 | migration z between -2 and 2; enough cells | 4688 |
| SLC35B3 (GeneID 51000) | 0.32 | under 3300 nuclei; migration not judged | 3208 |
| STAT5A (GeneID 6776) | -0.08 | migration z between -2 and 2; enough cells | 5736 |
| TMEM158 (GeneID 25907) | 1.52 | migration z between -2 and 2; enough cells | 7426 |

The list goes on, starting with the last 7 of the part before.
| Target gene | migration robust z-score | migration class with cell-count check | nuclei per well, duplicate mean |
| --- | --- | --- | --- |
| IL38 (GeneID 84639) | 1.46 | migration z between -2 and 2; enough cells | 4942 |
| BNIP2 (GeneID 663) | 0.08 | migration z between -2 and 2; enough cells | 5454 |
| SPARCL1 (GeneID 8404) | 1.4 | migration z between -2 and 2; enough cells | 6013 |
| TRNP1 (GeneID 388610) | 0.58 | migration z between -2 and 2; enough cells | 4688 |
| SLC35B3 (GeneID 51000) | 0.32 | under 3300 nuclei; migration not judged | 3208 |
| STAT5A (GeneID 6776) | -0.08 | migration z between -2 and 2; enough cells | 5736 |
| TMEM158 (GeneID 25907) | 1.52 | migration z between -2 and 2; enough cells | 7426 |
| RSPRY1 (GeneID 89970) | 0.9 | migration z between -2 and 2; enough cells | 5132 |
| OTOG (GeneID 340990) | -0.99 | migration z between -2 and 2; enough cells | 4472 |
| IFITM1 (GeneID 8519) | 0.74 | migration z between -2 and 2; enough cells | 5832 |
| KRTAP6-1 (GeneID 337966) | 0.12 | migration z between -2 and 2; enough cells | 4709 |
| OTOR (GeneID 56914) | -0.88 | migration z between -2 and 2; enough cells | 5454 |
| DAB1 (GeneID 1600) | 1.29 | migration z between -2 and 2; enough cells | 5292 |
| FLNB (GeneID 2317) | -1.08 | migration z between -2 and 2; enough cells | 5336 |
| SLC8B1 (GeneID 80024) | -0.82 | migration z between -2 and 2; enough cells | 5420 |
| PTPRD (GeneID 5789) | -0.13 | migration z between -2 and 2; enough cells | 5073 |
| OTOP1 (GeneID 133060) | -0.12 | migration z between -2 and 2; enough cells | 5964 |
| TMEM208 (GeneID 29100) | 0.58 | migration z between -2 and 2; enough cells | 4780 |
| FAM110D (GeneID 79927) | -0.36 | migration z between -2 and 2; enough cells | 6594 |
| RCAN3 (GeneID 11123) | 1.25 | migration z between -2 and 2; enough cells | 5622 |
| RRM2B (GeneID 50484) | 0.7 | migration z between -2 and 2; enough cells | 5217 |
| BRICD5 (GeneID 283870) | -2.23 (active) | migration z below -2; enough cells | 6194 |
| LIN9 (GeneID 286826) | 0.6 | migration z between -2 and 2; enough cells | 6632 |
| NSUN4 (GeneID 387338) | 0.88 | migration z between -2 and 2; enough cells | 6000 |
| OR14J1 (GeneID 442191) | -1.75 | migration z between -2 and 2; enough cells | 4896 |
| PTGIS (GeneID 5740) | -0.24 | migration z between -2 and 2; enough cells | 5983 |
| OR8D1 (GeneID 283159) | -1.48 | migration z between -2 and 2; enough cells | 5824 |
| CCDC97 (GeneID 90324) | -0.02 | migration z between -2 and 2; enough cells | 6705 |
| TENM2 (GeneID 57451) | 0.28 | migration z between -2 and 2; enough cells | 6784 |
| LGALS1 (GeneID 3956) | -2.62 (active) | migration z below -2; enough cells | 3640 |
| ZNF761 (GeneID 388561) | 0.73 | migration z between -2 and 2; enough cells | 5066 |
| S100G (GeneID 795) | 2.46 (active) | migration z above 2; enough cells | 6211 |
| NPHS2 (GeneID 7827) | -0.93 | migration z between -2 and 2; enough cells | 6620 |
| NR2C2 (GeneID 7182) | -0.18 | migration z between -2 and 2; enough cells | 6675 |
| KAZN (GeneID 23254) | -0.66 | migration z between -2 and 2; enough cells | 5912 |
| TMSB4Y (GeneID 9087) | 0.66 | migration z between -2 and 2; enough cells | 5799 |
| RAD52 (GeneID 5893) | -0.62 | migration z between -2 and 2; enough cells | 6186 |
| KDM2A (GeneID 22992) | -0.68 | migration z between -2 and 2; enough cells | 5018 |
| TFDP1 (GeneID 7027) | 0.49 | migration z between -2 and 2; enough cells | 4478 |
| CYREN (GeneID 78996) | -1.83 | migration z between -2 and 2; enough cells | 5658 |
| POLB (GeneID 5423) | 1.01 | migration z between -2 and 2; enough cells | 5950 |
| DLGAP2 (GeneID 9228) | 1.78 | migration z between -2 and 2; enough cells | 6952 |
| RFPL1 (GeneID 5988) | -0.68 | migration z between -2 and 2; enough cells | 5526 |
| APOBEC4 (GeneID 403314) | -2.65 (active) | migration z below -2; enough cells | 6582 |
| PJVK (GeneID 494513) | 0.4 | migration z between -2 and 2; enough cells | 6005 |
| ZMYM4 (GeneID 9202) | 1.75 | migration z between -2 and 2; enough cells | 6792 |
| HBQ1 (GeneID 3049) | -1.1 | migration z between -2 and 2; enough cells | 4662 |
| TTYH2 (GeneID 94015) | 0.18 | migration z between -2 and 2; enough cells | 5410 |
| OR2M7 (GeneID 391196) | -0.54 | migration z between -2 and 2; enough cells | 4876 |
| LCE1E (GeneID 353135) | 1.07 | migration z between -2 and 2; enough cells | 5937 |
| KLHL18 (GeneID 23276) | -1.62 | migration z between -2 and 2; enough cells | 5762 |
| PIK3CG (GeneID 5294) | 0.08 | migration z between -2 and 2; enough cells | 4702 |
| WT1 (GeneID 7490) | 0.42 | migration z between -2 and 2; enough cells | 5108 |
| MIPEP (GeneID 4285) | 1.14 | migration z between -2 and 2; enough cells | 5737 |
| WIPF2 (GeneID 147179) | 0.17 | migration z between -2 and 2; enough cells | 5709 |
| MANEA (GeneID 79694) | 1.07 | migration z between -2 and 2; enough cells | 6298 |
